No constants are given. Whether binding was seen depends on the method and setting. In cells and extracts the contact can be indirect. Some binding calls cover weakened binding; strength is not graded here. For some assays here: Sequences can lack the tags named with a protein. One block for each binder: values may come before it.
Key:
[1] = target: runt-related transcription factor 2 (Runx2), endogenous in mouse heart (mouse (endogenous in heart tissue)) (UniProt Q08775); experiment: co-IP; endogenous immunoprecipitation from mouse heart tissue lysate with Mib2 or Runx2 antibodies; protein A + G magnetic beads, 4°C overnight, Western blot
[2] = target: HA-Runx2 (full-length Runx2, overexpression plasmid) (UniProt Q08775); experiment: co-IP; HEK293T cells transfected with Mib2 and Runx2 overexpression plasmids; lysate incubated with antibody and protein A + G magnetic beads, 4°C overnight, Western blot

The chains behind the UniProt entries cited, without tags or fusion partners.
UniProt Q08775: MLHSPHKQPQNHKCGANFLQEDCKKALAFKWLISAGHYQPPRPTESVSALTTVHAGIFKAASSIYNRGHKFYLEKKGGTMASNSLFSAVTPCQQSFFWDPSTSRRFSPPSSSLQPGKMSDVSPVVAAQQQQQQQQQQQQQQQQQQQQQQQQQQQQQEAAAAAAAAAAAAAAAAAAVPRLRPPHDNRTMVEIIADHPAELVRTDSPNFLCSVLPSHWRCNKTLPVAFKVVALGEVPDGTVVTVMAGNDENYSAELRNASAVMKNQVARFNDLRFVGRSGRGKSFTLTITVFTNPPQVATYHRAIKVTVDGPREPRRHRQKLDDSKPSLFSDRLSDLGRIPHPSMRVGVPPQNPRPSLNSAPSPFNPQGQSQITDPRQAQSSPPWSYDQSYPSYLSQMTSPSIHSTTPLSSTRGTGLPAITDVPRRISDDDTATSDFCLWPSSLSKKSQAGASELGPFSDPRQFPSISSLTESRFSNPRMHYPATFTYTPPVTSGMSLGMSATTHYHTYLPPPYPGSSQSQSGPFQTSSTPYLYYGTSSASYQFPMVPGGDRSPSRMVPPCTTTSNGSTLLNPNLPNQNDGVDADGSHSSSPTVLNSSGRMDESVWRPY

binding [1]: binds
B1: mind bomb E3 ubiquitin protein ligase 2 (Mib2), endogenous in mouse heart (protein, UniProt Q8R516 1-973)
chain: MDLDPHAGVQVGMRVVRGMDWKWGQQDGGEGGVGTVVELGRHGSPSTPDRTVVVQWDQGTRTNYRAGYQGAHDLLLYDNAQIGIRHPNIICDCCKKHGLRGMRWKCRVCFDYDLCTQCYMHNKHDLTHAFERYETSHSRPVTLSPRQGLPRIPLRGIFQGAKVVRGPDWEWGSQDGGEGKTGRVVDIRGWDVETGRSVASVTWADGTTNVYRVGHKGKVDLRCVGEAAGGFYYKEHLPKLGKPAELQRRVSADGQPFQRGDKVKCLLDTDVLRDMQEGHGGWNPRMAEFIGQMGTVHRITDRGDVRVQFNHETRWTFHPGALTKHNSFWVGDVVRVIGDLDTVKRLQAGHGEWTDDMAPALGRVGKVVKVFGDGNLRVAVGGQRWTFSPSCLVAYRPEEDANLDVAERARENKSAASVSVAGSLSVALDKLRTQKSDPEHPGRLVVEAALGNVARALDLLRRHPEQASYHPALVVDTKNQGRTALQVAAYLGQVELVRLLLQARASMDLPDDEGNTVLHYTAMGNQPEATRVLLSAGCAVDARNGTRSTALHVAVQRGFLEVVKILCERGCDVNLPDAHADTPLHSAISAGAGASSIVEVLTEVPGIDVTATNSQGFTLLHHASLKGHVLAVRKILARARQLVDAKKEDGFTALHLAALNNHREVAQVLIREGRCDVNVRNRKLQSPLHLAVQQAHLGLVPLLVDAGCSVNTEDEEGDTALHVALQRHQLLPLVADRAGGDPGPLQLLSRLQASGLPGCTELTVGAAVACFLALEGADVSYANHRGRSPLDLATEGRVLKALQGCAQRFRERQAGGGGGVPPGPRHVLSTPNTVTNLHVSGTAGPEAAECLVCSELALLILFSPCQHRTVCEECARRMKKCIRCQVVISKKLRPDGSEVVNAIQVPGPPRQLVEELQSRYRQMEERITCPICIDSHIRLVFQCGHGACAPCGAALNACPICRQPIRDRIQIFV

binding [2]: binds
B2: Flag-Mib2 (full-length Mib2, overexpression plasmid) (protein, UniProt Q8R516 1-973)
chain: B1 chain

— publication PMC11955417
